Data on five compounds can be found in paper PMC12117180, “DNA‐Binding Properties of Non‐Intercalating Water‐Soluble Organometallic Ir(III) Luminophores” (Chemistry (Weinheim an Der Bergstrasse, Germany), 2025).

The test system of one series is fish sperm DNA (FSDNA). The experiment in a line: UV-visible titrations with fish sperm DNA, multiple independent binding sites (MIS) model. As to conditions: change in molar absorption on DNA binding; 25 mM MOPS, 50 mM NaCl, pH 7.0, 25 °C. On the procedure:
We then studied the interactions of the complexes with double‐stranded DNA using UV‐visible titrations. Briefly, solutions of 44.14, 31.52, 35.17, 37.55, and 29.62 µM for the five complexes [Ir(L1‐5)2(en)]Cl, respectively, were titrated (in duplicate) with fish sperm DNA (FSDNA) at 25 °C (Figure 7 and Figures S19–22). The interactions between these complexes and DNA turned out not to involve a single type of binding site (vide infra). Nevertheless, the data from the UV‐visible titrations were provisionally analyzed globally using the multiple independent binding sites (MIS) model to determine apparent binding affinities and apparent binding site sizes (Table 4).
All solutions were prepared by dissolving solids in a buffer with stirring, then filtration through a 0.22 µm PES filter to remove solid particles and ensure uniform, saturated solutions before titration. Concentrations were determined using extinction coefficients. MOPS buffer was prepared by dissolving MOPS (3‐(N‐morpholino)propanesulfonic acid, NaCl (all obtained from Fisher and used as supplied) in deionized water (Elga Purelab Flex), adjusting the pH to 7.0 using a NaOH solution (pH of the buffer was determined using a Hanna Instruments pH211 microprocessor pH meter with a Bioblock Scientific pH probe) and making up the solution to 0.5 liter. A stock solution of fish sperm DNA was prepared by dissolving approximately 0.1 g of fish sperm DNA in 10 mL of the buffer. The resulting solution was dialyzed (3.5 kDa MWCO, Visking, Medicell International Ltd) against 0.5 liters of buffer. Following dialysis, the DNA concentration was determined using UV‐visible spectroscopy using a molar absorption coefficient ε260 nm = 12 800 M^−1 cm^−1.^[ [37] ^] Spectra and titrations were plotted in OriginLab Origin 2019b. The titration data were analyzed globally for each complex using an in‐house written version of the multiple independent binding sites model which also explicitly takes changing ligand concentrations into account.^[ [49] ^]

The subject of a further series is FSDNA. The experiment in a line: Isothermal titration calorimetry of DNA binding, two types of independent binding sites. As to conditions: 25 mM MOPS, 5 mM NaCl, pH 7.0, 25 °C; for ΔH A1 / ‐TΔS A1: high-affinity site; for ΔH B1 / ‐TΔS B1: low-affinity site. Also on record: species or system fish. Here is the method:
Cooperative self‐aggregation of DNA binders in combination with DNA binding makes data analysis complex because of the presence of coupled equilibria.^[ [46] ^] In the case of aggregation of charged species, the aggregation process tends to be very sensitive to salt concentration. We therefore studied self‐aggregation in buffer at a lower salt concentration (25 mM MOPS, pH 7.0, 5 mM NaCl) and found no indications of self‐aggregation. We therefore opted to carry out the ITC experiments in a buffer with a reduced salt concentration of 5 mM. Titrations were carried out in two parts, viz. a first titration focussing on the first binding event followed by a second titration focussing on the second binding event (Figures S23–25 with complex and DNA concentrations for each individual titration in Table S5). Figures S23 and S25 clearly show two binding events, as anticipated from UV‐visible titrations.
We analyzed the data using a model involving two types of independent binding sites, correcting for dilution heat effects in our custom data analysis software I2CITC^[ [45], [47] ^] […] The complexes also bind to a second lower affinity type of binding site with a size of approximately 2–3 basepairs with an affinity K B1 of the order of 10^5 M^−1 in an exothermic process. Based on the combination of binding site size and the exothermic interaction, we attribute the low‐affinity binding event to non‐specific binding of the cationic complexes to negatively charged DNA, supported by hydrophobic interactions between complexes. The binding site size of the higher affinity binding site exceeds the dimensions of the complexes of around five base pairs, as estimated from the docking studies (vide supra). […] Intriguingly, the relatively low ΔH A1 is in line with groove binding.^[ [48] ^]
Buffers employed in the experiments were 50 mM NaCl and 25 mM MOPS (adjusted to pH 7 with NaOH) and 5 mM NaCl and 25 mM MOPS (adjusted to pH 7 with NaOH). Solutions of DNA were prepared by diluting the DNA stock solutions (see UV‐visible titrations) as required. Complex solutions were prepared by dissolving 5 mg of the complex in 5 mL of buffer, then filtered through a 0.22 µm PES filter to ensure uniform solutions for ITC titration. Concentrations of solutions of complexes and of DNA were determined using UV‐visible spectroscopy. Calorimetric titrations were carried out at 25 °C on a MicroCal PEAQ‐ITC microcalorimeter (Malvern Instruments Ltd., Worcestershire, UK). The instrument was operated by applying a reference power of 10 μcal/s in high‐feedback mode, stirring the sample cell contents at 750 rpm, with a pre‐injection initial delay of 60 s. Solutions of complexes were loaded into the calorimeter injection syringe and DNA solutions were loaded into the sample cell. All experiments involved an initial injection of 0.4 µL in 0.8 s followed by 18 further injections of 2.0 µL in 4.0 s per injection into the calorimeter sample cell. Injections were spaced by at least 90 s to allow full recovery of the baseline. Raw data were treated using MicroCal PEAQ‐ITC Analysis Software (1.41) to generate both integrated heat effects per injection (ΔQ) and molar heat effects per injection (ΔH). Further data analysis was carried out using I2CITC.^[ [45], [47] ^]

Each structure is given as a SMILES string.

In the case of `NCCN.[Cl-].[Ir+3].[c-]1ccccc1-c1nc2ccccc2s1.[c-]1ccccc1-c1nc2ccccc2s1` [[Ir(L1)2(en)]Cl], in the series with fish sperm DNA (FSDNA), the Δε is reported as −2.7 ± 0.2 10^3 M^−1 cm^−1. In addition, in the series on FSDNA, the “ΔH A1” value was -0.789 kcal/mol, the “‐TΔS A1” value was -10.6 kcal/mol, the “ΔH B1” value is -3.73 kcal/mol and the “‐TΔS B1” value was -3.3 kcal/mol.

For the compound `Cc1c[c-]c(-c2nc3ccccc3s2)cc1.Cc1c[c-]c(-c2nc3ccccc3s2)cc1.NCCN.[Cl-].[Ir+3]` [[Ir(L2)2(en)]Cl], in the series with fish sperm DNA (FSDNA), the Δε is on record as −3.2 ± 0.1 10^3 M^−1 cm^−1. For the same compound, in the series on FSDNA, the “ΔH A1” value was 0.14 kcal/mol, the “‐TΔS A1” value is -11.2 kcal/mol, the “ΔH B1” value is -2.99 kcal/mol and the “‐TΔS B1” value is -4.66 kcal/mol.

Regarding `COc1c[c-]c(-c2nc3ccccc3s2)cc1.COc1c[c-]c(-c2nc3ccccc3s2)cc1.NCCN.[Cl-].[Ir+3]` [[Ir(L3)2(en)]Cl], the Δε in the series with fish sperm DNA (FSDNA) is on record as −5.9 ± 0.2 10^3 M^−1 cm^−1. Also, in the series with FSDNA, the “ΔH A1” value was found to be 0 kcal/mol, the “‐TΔS A1” value is -9.94 kcal/mol and the “‐TΔS B1” value was -3.39 kcal/mol.

Regarding `Clc1c[c-]c(-c2nc3ccccc3s2)cc1.Clc1c[c-]c(-c2nc3ccccc3s2)cc1.NCCN.[Cl-].[Ir+3]` [[Ir(L4)2(en)]Cl], the Δε in the series with fish sperm DNA (FSDNA) is −3.6 ± 0.2 10^3 M^−1 cm^−1.

On to `FC(F)(F)Oc1c[c-]c(-c2nc3ccccc3s2)cc1.FC(F)(F)Oc1c[c-]c(-c2nc3ccccc3s2)cc1.NCCN.[Cl-].[Ir+3]` [[Ir(L5)2(en)]Cl], for which, in the series with fish sperm DNA (FSDNA), the Δε is on record as −6.6 ± 0.2 10^3 M^−1 cm^−1.
